Laboratory results taken from patent publication US20130281314A1.
Results are given in words; binding and its absence hold for the method and conditions named. Some results given as binding are weak or reduced against the parent protein; the word gives no strength.

By UniProt entry, the sequences of proteins in these tests, tags left out. Where a name states a change or a piece, a line headed by the entry shows the natural chain unless it says otherwise. Chains listed by the source or under a name are the forms on record and can include a tag or linker.
USP7catC223A (Q93009, form named): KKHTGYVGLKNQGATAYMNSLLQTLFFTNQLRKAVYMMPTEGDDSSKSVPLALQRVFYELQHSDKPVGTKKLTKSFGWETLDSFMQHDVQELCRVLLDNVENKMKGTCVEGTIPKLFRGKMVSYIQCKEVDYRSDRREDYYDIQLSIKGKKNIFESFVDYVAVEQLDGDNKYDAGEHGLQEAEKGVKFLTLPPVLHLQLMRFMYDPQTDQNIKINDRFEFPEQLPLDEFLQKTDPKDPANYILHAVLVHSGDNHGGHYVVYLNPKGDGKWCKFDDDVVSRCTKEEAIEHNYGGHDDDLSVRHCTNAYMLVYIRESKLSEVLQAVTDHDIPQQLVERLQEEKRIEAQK

Biological target: USP7catC223A (UniProt Q93009)
Experiment: protein ELISA, His-tagged variant on captured biotinylated USP7catC223A

B1: U7Ub25.54 (designed binder)
ubiquitin variant: MQIFVKFRTGKTYTLEVEPSDTIENVKAKIQDKLGIPPDQQRLIFGGKLLEDGRTLSDYNIEKESTLHGVRRLRGG
binding: binds

B2: U7Ub25.58 (designed binder)
ubiquitin variant: MQIFVKFRTGKTYTLEVEPSDTIENVKAKIQDKLGIPPDQQTLIFSGKLLEDGRTLSDYNIEKEATLHGIRRLRGG
binding: binds
